{"source": "PubChem BioAssay AID686938 (Drosophila RNAi Screening Center, 2013)", "purpose": "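Looking for CRAC channel components and the factors controlling them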 (primary screen)", "cells": "Drosophila S2R+ cells", "reagents": "long dsRNA against Drosophila genes, about 0.25 µg dsRNA per well, roughly 10,000 cells", "duration": "5 days of knock-down before the calcium assay", "challenge": "thapsigargin (SERCA pump blocker) to empty calcium stores; entry signal taken 4 min after adding it", "detection": "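Per-well fluo-4 fluorescence in two replicates, unnormalised, measured in resting cells and 4 min after store depletion by the SERCA blocker thapsigargin; ratio of the two present in few wells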", "direction": "calcium entry signal: higher = stronger calcium signal after store depletion; resting calcium signal: higher = higher resting calcium signal", "units": "calcium entry signal in fluorescence units; resting calcium signal in fluorescence units", "rule for the call": "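Hit if the duplicate-averaged plate z-score for entry over resting signal is under −3; wells with weak total dye signal (Fmax z < −2) or more than 5 off-targets removed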", "calls": "active = strongly reduced calcium entry; inactive = no strong reduction", "note": "In all, the deposit lists about 23,000 reagents; this is a random part of those with a known target gene and a result. Of all reagents, 75 (0.33%) were called active. 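Raw plate signals without normalisation; calls rest on plate z-scores that were not deposited; ratio present for only 364 wells.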 Unmarked entries are inactive. Not stated in the record: the dose of the treatment."}
{"target gene": "gpp (GeneID 40793)", "amplicon": "DRSC12515", "calcium entry signal, replicate 1": 3.22e7, "calcium entry signal, replicate 2": 2.74e7, "resting calcium signal, replicate 1": 1.53e7, "resting calcium signal, replicate 2": 1.41e7}
{"target gene": "gpp (GeneID 40793)", "amplicon": "DRSC12516", "calcium entry signal, replicate 1": 5.49e7, "calcium entry signal, replicate 2": 4.58e7, "resting calcium signal, replicate 1": 2.47e7, "resting calcium signal, replicate 2": 2.15e7}
{"target gene": "SK (GeneID 31456)", "amplicon": "DRSC17387", "calcium entry signal, replicate 1": 2.36e7, "calcium entry signal, replicate 2": 2.39e7, "resting calcium signal, replicate 1": 1.17e7, "resting calcium signal, replicate 2": 1.15e7}
{"target gene": "SK (GeneID 31456)", "amplicon": "DRSC17751", "calcium entry signal, replicate 1": 1.82e7, "calcium entry signal, replicate 2": 2.58e7, "resting calcium signal, replicate 1": 1.01e7, "resting calcium signal, replicate 2": 1.23e7}
{"target gene": "SK (GeneID 31456)", "amplicon": "DRSC17887", "calcium entry signal, replicate 1": 1.92e7, "calcium entry signal, replicate 2": 2.99e7, "resting calcium signal, replicate 1": 1.06e7, "resting calcium signal, replicate 2": 1.33e7}
{"target gene": "SK (GeneID 31456)", "amplicon": "DRSC17888", "calcium entry signal, replicate 1": 1.77e7, "calcium entry signal, replicate 2": 2.97e7, "resting calcium signal, replicate 1": 1.01e7, "resting calcium signal, replicate 2": 1.44e7}
{"target gene": "SK (GeneID 31456)", "amplicon": "DRSC18353", "calcium entry signal, replicate 1": 2.60e7, "calcium entry signal, replicate 2": 2.77e7, "resting calcium signal, replicate 1": 1.23e7, "resting calcium signal, replicate 2": 1.30e7}
{"target gene": "SK (GeneID 31456)", "amplicon": "DRSC21840", "calcium entry signal, replicate 1": 2.27e7, "calcium entry signal, replicate 2": 6.64e7, "resting calcium signal, replicate 1": 1.14e7, "resting calcium signal, replicate 2": 2.73e7}
{"target gene": "CG30403 (GeneID 246595)", "amplicon": "DRSC03889", "calcium entry signal, replicate 1": 3.81e7, "calcium entry signal, replicate 2": 6.10e7, "resting calcium signal, replicate 1": 1.71e7, "resting calcium signal, replicate 2": 2.94e7}
{"target gene": "ppk13 (GeneID 3346226)", "amplicon": "DRSC02382", "calcium entry signal, replicate 1": 6.15e7, "calcium entry signal, replicate 2": 4.78e7, "resting calcium signal, replicate 1": 2.82e7, "resting calcium signal, replicate 2": 2.02e7}
{"target gene": "CheB38c (GeneID 35346)", "amplicon": "DRSC02389", "calcium entry signal, replicate 1": 4.87e7, "calcium entry signal, replicate 2": 5.37e7, "resting calcium signal, replicate 1": 2.20e7, "resting calcium signal, replicate 2": 2.08e7}
{"target gene": "CG12268 (GeneID 42833)", "amplicon": "DRSC14491", "calcium entry signal, replicate 1": 6.37e7, "calcium entry signal, replicate 2": 7.89e7, "resting calcium signal, replicate 1": 3.03e7, "resting calcium signal, replicate 2": 2.69e7}

2 entries from above in another layout.
target gene | amplicon | calcium entry signal, replicate 1 | calcium entry signal, replicate 2 | resting calcium signal, replicate 1 | resting calcium signal, replicate 2
SK (GeneID 31456) | DRSC17751 | 1.82e7 | 2.58e7 | 1.01e7 | 1.23e7
SK (GeneID 31456) | DRSC17887 | 1.92e7 | 2.99e7 | 1.06e7 | 1.33e7
